Reference: article PMC8593051
These are yes or no findings as the source states them, for the method shown. In cells and extracts the contact can be indirect. Some binding calls cover weakened binding; strength is not graded here. For some of these results: Sequences can lack the tags named with a protein. One block for each molecule: values may come before it.

Chains of the proteins cited; added tags and fusions are not shown.
UniProt P0C6F1: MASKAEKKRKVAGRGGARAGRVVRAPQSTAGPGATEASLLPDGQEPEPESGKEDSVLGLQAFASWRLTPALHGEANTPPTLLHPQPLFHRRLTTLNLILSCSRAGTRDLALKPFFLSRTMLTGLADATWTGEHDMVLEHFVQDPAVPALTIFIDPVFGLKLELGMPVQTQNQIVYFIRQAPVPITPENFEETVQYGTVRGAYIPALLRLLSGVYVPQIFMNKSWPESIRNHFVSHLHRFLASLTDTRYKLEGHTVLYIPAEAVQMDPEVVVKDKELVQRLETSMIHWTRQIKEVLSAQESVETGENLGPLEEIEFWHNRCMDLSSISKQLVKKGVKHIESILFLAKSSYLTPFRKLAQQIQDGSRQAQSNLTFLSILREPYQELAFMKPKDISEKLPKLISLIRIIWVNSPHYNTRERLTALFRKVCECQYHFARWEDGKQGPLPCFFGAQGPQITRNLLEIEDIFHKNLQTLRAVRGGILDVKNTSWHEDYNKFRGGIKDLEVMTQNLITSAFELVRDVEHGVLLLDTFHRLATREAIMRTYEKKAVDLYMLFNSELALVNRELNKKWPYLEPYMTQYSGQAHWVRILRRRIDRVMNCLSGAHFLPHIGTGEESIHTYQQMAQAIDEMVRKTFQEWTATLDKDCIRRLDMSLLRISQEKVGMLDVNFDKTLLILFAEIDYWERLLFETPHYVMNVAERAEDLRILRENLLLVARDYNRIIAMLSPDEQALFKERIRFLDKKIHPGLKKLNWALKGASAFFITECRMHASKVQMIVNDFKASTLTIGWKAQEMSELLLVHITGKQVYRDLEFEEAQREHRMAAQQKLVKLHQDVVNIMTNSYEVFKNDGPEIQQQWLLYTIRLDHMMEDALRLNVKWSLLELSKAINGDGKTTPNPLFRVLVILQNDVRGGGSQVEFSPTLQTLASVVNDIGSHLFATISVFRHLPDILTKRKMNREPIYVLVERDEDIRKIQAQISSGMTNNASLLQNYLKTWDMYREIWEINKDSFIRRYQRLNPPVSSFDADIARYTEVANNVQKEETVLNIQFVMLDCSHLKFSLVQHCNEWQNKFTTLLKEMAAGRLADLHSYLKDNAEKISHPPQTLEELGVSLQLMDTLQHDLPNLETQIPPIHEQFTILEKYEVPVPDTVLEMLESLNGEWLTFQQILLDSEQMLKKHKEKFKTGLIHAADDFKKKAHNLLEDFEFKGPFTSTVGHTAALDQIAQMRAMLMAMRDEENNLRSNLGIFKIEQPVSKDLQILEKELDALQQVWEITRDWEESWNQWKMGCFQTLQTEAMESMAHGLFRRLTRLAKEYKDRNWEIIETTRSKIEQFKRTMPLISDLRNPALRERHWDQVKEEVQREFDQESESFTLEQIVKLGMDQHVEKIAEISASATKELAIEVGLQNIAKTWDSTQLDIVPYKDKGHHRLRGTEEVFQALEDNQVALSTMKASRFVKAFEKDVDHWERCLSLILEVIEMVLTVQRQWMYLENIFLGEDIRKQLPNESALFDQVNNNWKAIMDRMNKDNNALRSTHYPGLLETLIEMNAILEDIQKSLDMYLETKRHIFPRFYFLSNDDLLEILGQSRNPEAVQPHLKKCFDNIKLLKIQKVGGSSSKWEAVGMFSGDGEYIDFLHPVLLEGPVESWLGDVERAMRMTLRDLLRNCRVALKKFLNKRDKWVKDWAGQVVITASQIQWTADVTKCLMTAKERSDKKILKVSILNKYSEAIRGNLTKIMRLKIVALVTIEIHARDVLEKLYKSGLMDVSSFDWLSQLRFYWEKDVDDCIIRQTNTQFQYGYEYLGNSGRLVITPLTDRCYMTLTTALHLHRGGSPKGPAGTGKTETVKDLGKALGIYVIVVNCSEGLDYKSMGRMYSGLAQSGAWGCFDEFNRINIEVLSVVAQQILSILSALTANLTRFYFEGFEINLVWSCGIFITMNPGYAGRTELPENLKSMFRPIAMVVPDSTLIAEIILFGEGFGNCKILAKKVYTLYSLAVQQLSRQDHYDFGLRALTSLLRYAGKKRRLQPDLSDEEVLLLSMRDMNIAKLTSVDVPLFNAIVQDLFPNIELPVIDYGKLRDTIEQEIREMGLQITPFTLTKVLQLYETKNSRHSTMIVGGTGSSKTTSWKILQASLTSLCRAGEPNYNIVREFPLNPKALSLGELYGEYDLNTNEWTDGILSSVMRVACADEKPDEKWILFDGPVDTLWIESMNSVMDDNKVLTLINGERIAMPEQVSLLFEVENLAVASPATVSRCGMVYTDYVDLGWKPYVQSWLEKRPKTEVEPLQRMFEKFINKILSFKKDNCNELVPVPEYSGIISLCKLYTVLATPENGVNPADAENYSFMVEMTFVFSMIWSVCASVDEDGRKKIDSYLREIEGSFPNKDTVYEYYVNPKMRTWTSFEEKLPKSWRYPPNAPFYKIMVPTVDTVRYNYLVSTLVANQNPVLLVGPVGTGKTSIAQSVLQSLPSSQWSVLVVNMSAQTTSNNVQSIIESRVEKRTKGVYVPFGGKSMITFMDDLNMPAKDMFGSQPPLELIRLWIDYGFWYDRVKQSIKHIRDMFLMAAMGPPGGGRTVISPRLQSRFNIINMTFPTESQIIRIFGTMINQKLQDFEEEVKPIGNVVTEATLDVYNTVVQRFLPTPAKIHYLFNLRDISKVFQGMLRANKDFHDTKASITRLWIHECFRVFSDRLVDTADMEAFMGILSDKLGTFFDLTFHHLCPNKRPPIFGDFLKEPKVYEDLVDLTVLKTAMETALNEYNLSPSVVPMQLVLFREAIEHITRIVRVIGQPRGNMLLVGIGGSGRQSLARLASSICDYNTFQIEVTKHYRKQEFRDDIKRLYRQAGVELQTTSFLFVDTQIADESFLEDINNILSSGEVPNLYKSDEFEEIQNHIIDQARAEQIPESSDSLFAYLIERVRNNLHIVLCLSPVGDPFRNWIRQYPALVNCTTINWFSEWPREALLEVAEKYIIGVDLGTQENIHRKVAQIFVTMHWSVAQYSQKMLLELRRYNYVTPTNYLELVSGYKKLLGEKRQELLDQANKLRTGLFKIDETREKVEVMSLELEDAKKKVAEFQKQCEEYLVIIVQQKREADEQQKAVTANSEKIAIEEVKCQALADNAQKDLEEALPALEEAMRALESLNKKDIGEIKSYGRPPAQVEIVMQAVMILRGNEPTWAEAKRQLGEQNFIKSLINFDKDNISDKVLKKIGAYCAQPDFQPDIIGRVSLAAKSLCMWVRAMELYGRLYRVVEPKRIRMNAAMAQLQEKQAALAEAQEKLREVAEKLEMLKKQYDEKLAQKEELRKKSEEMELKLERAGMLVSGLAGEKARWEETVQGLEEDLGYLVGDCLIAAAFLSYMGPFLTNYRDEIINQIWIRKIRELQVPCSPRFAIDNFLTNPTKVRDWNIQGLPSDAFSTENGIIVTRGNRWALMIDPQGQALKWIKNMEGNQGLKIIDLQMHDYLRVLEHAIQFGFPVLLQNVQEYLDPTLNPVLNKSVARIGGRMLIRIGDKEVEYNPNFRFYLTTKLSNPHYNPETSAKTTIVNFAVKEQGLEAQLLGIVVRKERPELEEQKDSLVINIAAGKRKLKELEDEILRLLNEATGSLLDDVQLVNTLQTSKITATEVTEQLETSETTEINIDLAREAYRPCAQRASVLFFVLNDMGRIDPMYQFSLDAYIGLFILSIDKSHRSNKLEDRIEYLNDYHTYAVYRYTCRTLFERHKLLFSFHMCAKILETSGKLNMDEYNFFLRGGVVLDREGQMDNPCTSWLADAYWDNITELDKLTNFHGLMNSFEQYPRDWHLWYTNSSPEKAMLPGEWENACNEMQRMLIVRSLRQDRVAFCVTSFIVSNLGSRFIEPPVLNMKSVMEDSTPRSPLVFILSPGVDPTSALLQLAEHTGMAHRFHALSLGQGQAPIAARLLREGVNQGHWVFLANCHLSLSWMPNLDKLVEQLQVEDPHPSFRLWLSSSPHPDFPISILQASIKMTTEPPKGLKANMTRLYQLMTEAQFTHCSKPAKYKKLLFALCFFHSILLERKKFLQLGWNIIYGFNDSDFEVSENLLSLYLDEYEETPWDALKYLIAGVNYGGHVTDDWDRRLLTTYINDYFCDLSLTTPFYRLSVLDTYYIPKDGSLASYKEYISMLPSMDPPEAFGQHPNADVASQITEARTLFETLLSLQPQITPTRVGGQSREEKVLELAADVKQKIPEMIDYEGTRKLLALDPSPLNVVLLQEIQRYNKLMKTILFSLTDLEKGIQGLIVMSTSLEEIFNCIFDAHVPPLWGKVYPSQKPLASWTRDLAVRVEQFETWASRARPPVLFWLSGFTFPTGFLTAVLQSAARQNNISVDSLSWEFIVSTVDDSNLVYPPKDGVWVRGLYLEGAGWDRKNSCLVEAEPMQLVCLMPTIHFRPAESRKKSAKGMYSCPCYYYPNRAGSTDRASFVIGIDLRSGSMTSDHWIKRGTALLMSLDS

Key:
[1] = molecular target: T1, WDR63 (endogenous, mouse testicular extracts) (mouse (endogenous in testis)) (UniProt B2RY71); test: co-IP; co-IP followed by immunoblotting for DNAH2 and DNAH10 (Supplementary Fig. S5d); sample and precipitating antibody not given
T1 sequence: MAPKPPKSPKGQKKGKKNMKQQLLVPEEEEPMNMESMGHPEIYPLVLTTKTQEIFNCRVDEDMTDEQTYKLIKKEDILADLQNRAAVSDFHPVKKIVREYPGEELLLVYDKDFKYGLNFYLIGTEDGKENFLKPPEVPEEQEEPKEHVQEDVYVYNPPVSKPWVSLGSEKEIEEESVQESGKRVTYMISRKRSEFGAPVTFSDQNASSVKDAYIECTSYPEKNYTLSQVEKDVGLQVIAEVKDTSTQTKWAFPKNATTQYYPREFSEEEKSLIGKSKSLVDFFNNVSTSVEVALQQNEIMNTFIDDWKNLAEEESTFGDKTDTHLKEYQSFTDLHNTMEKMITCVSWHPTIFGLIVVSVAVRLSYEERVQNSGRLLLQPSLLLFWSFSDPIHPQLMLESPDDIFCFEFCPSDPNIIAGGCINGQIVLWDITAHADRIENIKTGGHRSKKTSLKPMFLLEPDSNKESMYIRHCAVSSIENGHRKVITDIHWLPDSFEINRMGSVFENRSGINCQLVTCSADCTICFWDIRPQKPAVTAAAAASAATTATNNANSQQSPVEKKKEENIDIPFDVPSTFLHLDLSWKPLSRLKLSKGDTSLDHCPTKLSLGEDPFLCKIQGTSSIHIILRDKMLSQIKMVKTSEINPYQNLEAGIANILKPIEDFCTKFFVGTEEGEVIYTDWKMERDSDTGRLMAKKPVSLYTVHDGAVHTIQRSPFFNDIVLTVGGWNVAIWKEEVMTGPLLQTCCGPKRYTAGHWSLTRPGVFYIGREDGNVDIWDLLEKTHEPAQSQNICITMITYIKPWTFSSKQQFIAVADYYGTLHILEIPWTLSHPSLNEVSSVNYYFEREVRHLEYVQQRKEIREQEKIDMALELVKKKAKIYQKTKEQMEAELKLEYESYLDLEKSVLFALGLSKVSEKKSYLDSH

[2] = molecular target: T1, WDR63 (endogenous, mouse testicular extracts) (mouse (endogenous in testis)); test: co-IP; testicular extracts, immunoprecipitation with anti-WDR63 antibodies, Protein A/G magnetic beads, Western blot for WDR78
[3] = molecular target: T2, HA-WDR63 WT (full-length) (mouse) (UniProt B2RY71); test: co-IP; HA-WDR63 constructs and FLAG-WDR78 transfected into HEK293T cells, collected after 48 h, immunoprecipitation with anti-HA and anti-FLAG antibodies, immunoblot
T2 sequence: T1 sequence

HA-WDR63 ΔN (mouse) = molecular target: T3, HA-WDR63 ΔN (mouse) (UniProt B2RY71); test: as above
T3 sequence: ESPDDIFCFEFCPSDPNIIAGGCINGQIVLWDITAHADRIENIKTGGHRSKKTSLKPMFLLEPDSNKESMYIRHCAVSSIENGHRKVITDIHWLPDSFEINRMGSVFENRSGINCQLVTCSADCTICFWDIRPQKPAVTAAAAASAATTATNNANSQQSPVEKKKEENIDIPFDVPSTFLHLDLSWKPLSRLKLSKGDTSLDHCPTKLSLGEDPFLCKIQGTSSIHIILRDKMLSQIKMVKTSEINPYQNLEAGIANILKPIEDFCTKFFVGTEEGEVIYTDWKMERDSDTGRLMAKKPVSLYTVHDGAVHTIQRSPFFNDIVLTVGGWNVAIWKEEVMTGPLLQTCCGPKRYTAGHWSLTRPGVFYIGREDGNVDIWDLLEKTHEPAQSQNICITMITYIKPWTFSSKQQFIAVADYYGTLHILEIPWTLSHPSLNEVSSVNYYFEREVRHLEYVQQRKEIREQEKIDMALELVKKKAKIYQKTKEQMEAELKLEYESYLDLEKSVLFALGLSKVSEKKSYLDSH

binding [1]: no binding
Molecule: DNAH2 (from UniProt P0C6F1 1-4456)

binding [2]: binds
B1: WDR78 (endogenous, mouse testicular extracts) (protein, UniProt E9PYY5 1-807)
chain: MHSSPTSTRKQASFAASASAQPRKSISFINPSKSSAGKGYAASNPNKLAVSRTMGFLTDMKPAEKLNVPSAKTVQVLDSKGVDVTPRPLYHPDPHAASAKPNKLLTSQEGSLGSDYISSYSLYQNTLNPSMLGQYTRSVLGSSSVSKSSISTTESMSEDLEDSSYKRDRLASFTDVRVLRSTAEAAISKEELEKTIEIILTETETLRFFDLPTVMFSTESEEAEKIIEKNKKYETLCRNRLGNDLYVERMMQTFNGAPKNKEVQCEKIILEEKGVVATTWDLYDSYNIPETLLAAKRSGYSSKGSLPAKDRDPKIQDSESSSLMDIENVILAKVQEDEEDNSEAILKSDKLHQDLFYMERVLMENVFQPKLAAYRQLPVYKEHEPEEPEETLQVENLKVAEDEPKKEDEEEVEMELELEIATEQSTIPANLERLWSFSCDLTKGLNVSSLSWNKANPDLLAVGYGNFGFREQKKGMACCWSIKNPMWPERIYQSSYGVTSVDFSNSSPNLLAVGYHNGTVAIYNVQSSHNIPVLDSSESPQKHLGPVWQVQWIEQDRGTTGDDKREILVSISADGRISKWIIRKGLDCHDLMRLKRTTATGGKKGGEKEKKGEALISRQAPGMCFAFHPKDTNIYLAGTEEGLIHKCSCSYNEQYLETYRGHKGPVYKVTWNPFCPDVFLSCSADWGVMIWHQDTVKPFLSFYPTTYVVYDVSWSPKSAYIFAAANENRVEIWDLQISTLDPLIVNVANPGIKFTTVLFAKETDCLLVGDSDGQVAVYELRNMPTASDTSRGDVINILLGPKTNHTG

binding [3]: binds | binding (HA-WDR63 ΔN (mouse)): binds
B2: FLAG-WDR78 (protein, UniProt E9PYY5 1-807)
chain: B1 chain
